## Binding screen against folded nucleic acids

From ROBIN, a set of small-molecule microarray screens (doi:10.1002/anie.202211358).

Targets, with sequences 5′ to 3′:
T1: SAM-II riboswitch RNA pseudoknot, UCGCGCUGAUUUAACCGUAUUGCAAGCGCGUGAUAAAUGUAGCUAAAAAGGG. Hit rate about 1% of about 21,000 compounds.
T2: PreQ1 riboswitch RNA pseudoknot, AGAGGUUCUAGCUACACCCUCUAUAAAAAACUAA. From B. subtilis. Hit rate about 0.7% of about 24,000 compounds.
T3: TPP riboswitch RNA three-way junction, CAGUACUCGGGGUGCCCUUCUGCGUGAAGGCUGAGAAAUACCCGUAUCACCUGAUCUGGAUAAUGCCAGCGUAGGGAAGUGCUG. Hit rate about 0.7% of about 24,000 compounds.

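Compounds were printed on reactive glass slides in duplicate spots, a dye-labelled oligonucleotide was laid over them, and the fluorescence left after washing was read. The data file lists only calls. An earlier report of the laboratory on the PreQ1, TPP and SAM-II riboswitches (doi:10.1038/s41467-019-09493-3) used 1 µM RNA for 2 h and required a mean Z-score above 3 (spot signal-to-noise against the whole library), a score well above that on a control array, and duplicate spots agreeing (coefficient of variation under 100); it then also set aside compounds that hit other targets, which this list keeps. The cut-offs behind this list may differ. The calls come from the array alone, and fixing a compound to the slide can hide its binding.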
A compound is marked hit if it was called a hit and none if it was screened but was not.
Compounds were drawn at random from those tested, without regard to their results.
A target missing from an entry has no call listed here.
A dash means that no call is listed here.

compound | T1 | T2 | T3
COc1ccc(CNc2cc(C(C)C)nc3nc(-c4cccnc4)nn23)cc1 | - | none | none
CC(C)C[C@H](NC(=O)[C@@H](NC(=O)c1cccc(-c2ccccc2)n1)[C@@H](C)O)B(O)O | none | none | none
COc1ccc(-c2cc(NCc3cccc(OC)c3)n3cnnc3n2)cc1 | - | none | none
O=C1C[C@@H]2OCC=C3C[N+]4([O-])CC[C@@]56c7ccccc7N1[C@H]5[C@H]2[C@H]3C[C@@H]64 (some centres not stated) | none | none | none
COC(=O)c1ccccc1NC(=O)N1CCOC2(CNCCOC2)C1 (configuration not stated) | none | none | none
COC(=O)C1=C(N)OC2=C(C(=O)CC(C)(C)C2)C1c1cccc(F)c1 (configuration not stated) | none | none | none
O=C(NC1CCN(c2cnccn2)CC1)c1cccc(CC2CCNCC2)c1 | none | none | none
OCc1ccc(-c2nccn2-c2ccc(C=Cc3ccccn3)cc2)o1 | none | none | none
CCOC(=O)c1ccc(NC2c3ccccc3C(=O)N2c2ccccc2C)cc1 (configuration not stated) | none | none | none
O=C(Cn1nc2ccccc2n1)N1CCC2(CC1)OCCCC2O (configuration not stated) | none | none | none
COCCC1(CO)CCCN(c2cc(COC)ncn2)C1 (configuration not stated) | none | none | none
CO[C@@]1(C)C[C@@H](O)C12CCN(C(=O)CCc1ccc(=O)[nH]n1)CC2 | none | none | none
O=c1c(Nc2cccc(C(F)(F)F)c2)c(-c2ccc(Cl)cc2)c1=O | - | none | none
COc1cccc2c(Nc3cccc(O)c3)cc(C)nc12 | none | none | none
Cn1c(=O)n(C)c2cc(CNc3nc[nH]n3)ccc21 | none | none | none
CC(C)(C)CC(C)(C)n1nnnc1N | none | none | none
O=C(Nc1ccccc1Oc1ccccc1)N1[C@H]2CCNC[C@@H]1CC2 | none | none | none
COc1ccc(-c2cnc3c(-c4ccccc4)cnn3c2N)cc1OC | none | none | none
Cc1[nH]c2c(CN3CCCC4(CCC(=O)N(CCO)C4)C3)cccc2c1C (configuration not stated) | none | none | none
O=C(N[C@H]1CN(c2nc(CO)cs2)C[C@@H]1C1CC1)C1CCCCC1 | none | none | none
COc1cc2nccc(Oc3ccc(NC(=O)Nc4cc(C)on4)c(Cl)c3)c2cc1OC | none | none | none
Cc1nc2ccccc2nc1CN1CC2(CCNCC2)OC1=O | none | none | none
CN(Cc1cccc2cnccc12)CC1CCNC1 (configuration not stated) | none | none | none
Cc1cc(NCCCC(=O)N2CCCCCC2)n2nc(-c3cccnc3)nc2n1 | - | none | none
NCc1ccc(CNS(=O)(=O)c2ccccc2)o1 | none | none | none
C=CCOC(=O)C1=C(C)OC(N)=C(C#N)C1c1ccccc1 (configuration not stated) | none | none | none
O=C(Cc1cccc(O)c1)N(CCO)CCSc1ccc(Cl)cc1 | none | none | none
Cc1cc2nc(-c3cc(N)ccc3Cl)oc2cc1C | none | none | none
COc1ccc(CCNCc2c[nH]c3ccccc23)cc1OC | none | none | none
COCCOC(=O)C1=C(N)OC2=C(C(=O)CC(C)(C)C2)C1c1cccnc1 (configuration not stated) | none | none | none
Cc1ccc(-n2ccnc2-c2cc3n(n2)CCNC3)cc1N1CCCC1=O | none | none | none
CCCc1nc2c3ccccc3nc(NCCCN3CCN(c4ccccc4F)CC3)n2n1 | - | none | hit
Cc1cccc(-n2nc(CCc3ccccc3)nc2CN2CCC(O)CC2)c1 | none | none | none
Clc1cccc(CNCc2ccc3c(c2)OCO3)c1 | none | none | none
NC1=C(c2nc3ccccc3s2)CC(=O)N1c1ccc(F)cc1F | none | none | none
N#Cc1c2c(c(NCCN3CCCCC3)n3c1nc1ccccc13)CCC2 | none | hit | none
COc1cccc(CNCc2cccc(F)c2)c1OC | none | none | hit
NCCc1cccc(CN2CCC3(CCC(=O)N(Cc4ccccn4)C3)CC2)c1 | none | none | none
Cc1ccccc1-n1nnc(-c2nc(-c3cccnc3)no2)c1N | - | none | none
O=C(O)C1CNCCN(Cc2cccc(-c3ccco3)c2)C1 (configuration not stated) | none | none | none
C#CCNc1cc(-c2ccccc2)nc2nncn12 | - | none | none
CCOC(=O)[C@]12CCCN[C@@H]1CCN(C(=O)c1ccn3nnnc3c1)C2 | none | none | none
S=c1nc[nH]c2c1ncn2C1CCCO1 (configuration not stated) | none | none | none
O=S1(=O)CSCS(=O)(=O)C1 | none | none | none
CSc1ccc(-c2nc3cnccn3c2Nc2ccc3c(c2)OCO3)cc1 | none | none | none
c1cc(-c2nc(CCNC3CCSC3)cs2)ccn1 (configuration not stated) | none | none | none
CCCc1cnc(C)nc1N1CCC(NC(C)Cc2cnccn2)CC1 (configuration not stated) | none | none | none

The last 3 entries again:

{"compound": "CSc1ccc(-c2nc3cnccn3c2Nc2ccc3c(c2)OCO3)cc1", "T1": "none", "T2": "none", "T3": "none"}
{"compound": "c1cc(-c2nc(CCNC3CCSC3)cs2)ccn1", "stereo": "configuration not stated", "T1": "none", "T2": "none", "T3": "none"}
{"compound": "CCCc1cnc(C)nc1N1CCC(NC(C)Cc2cnccn2)CC1", "stereo": "configuration not stated", "T1": "none", "T2": "none", "T3": "none"}